Laboratory results: PubChem BioAssay AID1671190 (National Center for Advancing Translational Sciences (NCATS), 2021)
In all, about 580,000 compounds went through this assay and about 6,100 (1.1%) were called active. Inconclusive results, whose numbers are uncertain, are shown with a selection of clear calls. The call rests on the fitted dose curve; in most records, active means well fitted inhibition curve with a large enough effect; inconclusive means small, poorly fitted or top-dose-only effect, or another doubt; inactive means no such curve, though single readings can be large or run the other way. Potencies beside an inconclusive call are fits to weak or partial responses and may not hold up.

The chains behind the UniProt entries cited, without tags or fusion partners. Where a name states a change or a piece, a line headed by the entry shows the natural chain unless it says otherwise.
UniProt P18054: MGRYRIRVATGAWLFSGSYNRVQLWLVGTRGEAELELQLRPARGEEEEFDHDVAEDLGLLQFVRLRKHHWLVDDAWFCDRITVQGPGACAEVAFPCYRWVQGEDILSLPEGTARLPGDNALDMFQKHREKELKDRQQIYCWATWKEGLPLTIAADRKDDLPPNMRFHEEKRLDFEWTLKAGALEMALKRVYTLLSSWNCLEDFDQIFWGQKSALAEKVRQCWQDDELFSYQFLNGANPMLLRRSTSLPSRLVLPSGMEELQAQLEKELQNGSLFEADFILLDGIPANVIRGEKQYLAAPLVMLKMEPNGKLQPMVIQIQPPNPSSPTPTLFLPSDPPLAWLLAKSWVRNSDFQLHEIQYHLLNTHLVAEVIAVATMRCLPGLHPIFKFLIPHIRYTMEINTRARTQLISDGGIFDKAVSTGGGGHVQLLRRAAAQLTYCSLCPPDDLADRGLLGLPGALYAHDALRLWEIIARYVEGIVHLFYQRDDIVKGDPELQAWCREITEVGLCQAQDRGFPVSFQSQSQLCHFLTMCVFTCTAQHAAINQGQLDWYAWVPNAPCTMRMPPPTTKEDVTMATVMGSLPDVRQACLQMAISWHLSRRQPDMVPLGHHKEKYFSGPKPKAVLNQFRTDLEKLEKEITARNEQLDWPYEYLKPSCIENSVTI

Target: Polyunsaturated fatty acid lipoxygenase ALOX12 (Homo sapiens) (UniProt P18054)
Assay: Primary qHTS assay for inhibitors of human arachidonate 12S-lipoxygenase (ALOX12): Round 2
Details: purified 12hLO, xylenol orange hydroperoxide absorbance; series mostly up to 108 µM
How it was run: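 Purified human 12hLO (150 nM final) in 25 mM Hepes, 0.01% Triton X-100, pH 7.0 was preincubated 15 min at room temperature with compound. Then 40 uM arachidonic acid was added, 30 min. Hydroperoxide was read by Fe-XO absorbance ratio 573/405 nm.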
Potency means the concentration at half of the fitted maximal effect.

SMILES	Potency
COc1cc(C(=O)OCCC(C)C)cc(OC)c1O	inconclusive: 3.98 µM [inhibitor, full curve, poor fit]
COc1ccc(C(=O)N2CCC(c3n[nH]c(=O)n3Cc3ccc(C)cc3)CC2)cc1F	inactive
C/C(=N\NC(=O)c1cccc(Br)c1)c1cccs1	inactive
Cc1c(C(=O)N2CCN(c3ccccn3)CC2)sc2ncnc(N3CCOCC3)c12	inconclusive: 79.4 µM [inhibitor, partial curve, poor fit]
COc1ccc(C(C)=O)cc1COC(=O)COc1cccc(Br)c1	inconclusive: 7.94 µM [inhibitor, full curve, poor fit]
CCNC(=S)N/N=C/c1ccc(Cl)c(Cl)c1	inactive
Cc1occc(=O)c1OC(=O)Nc1ccc(Cl)c(Cl)c1	inconclusive: 20 µM [inhibitor, partial curve, poor fit]
Cc1ccc(-c2noc([C@@H]3Cc4nc[nH]c4CN3C(=O)CCC(=O)O)n2)cc1	inconclusive: 35.5 µM [inhibitor, single point]
CC(Nc1ccc(Br)cc1)C(=O)NC(=O)NC1CCCCC1 (stereo not given)	inconclusive: 79.4 µM [inhibitor, single point]
CC(C)C(=O)N1CCN(c2ccc(NC(=O)c3ccc4c(c3)OCCO4)cc2)CC1	inactive
CCn1c(SCC(=O)c2ccc(Cl)cc2)nnc1-c1ccoc1C	inconclusive: 141 µM [inhibitor, partial curve, poor fit]
Nc1ncnc(Nc2ccccc2C(F)(F)F)n1	inconclusive: 2.82 µM [inhibitor, full curve, poor fit]
COc1cccc2cc(C(=O)Nc3ccccc3OC(F)F)c(=O)oc12	inactive
O=C(NCCN1CCCCC1)Nc1ccccc1Cl	inconclusive: 35.5 µM [inhibitor, partial curve, poor fit]
O=C(OCC12CC3CC(CC(C3)C1)C2)c1ccc([N+](=O)[O-])cc1	inconclusive: 50.1 µM [inhibitor, partial curve, poor fit]
COc1ccc(Cl)cc1C(=O)NNC(=O)C1CCCC(C(F)(F)F)C1 (stereo not given)	inactive
CCN1Cc2c(cc(OC)c(OC)c2OC)-c2ccccc2S1(=O)=O	inconclusive: 56.2 µM [inhibitor, partial curve, poor fit]
CCCC(=O)Nc1nnc(-c2cccc(OCC)c2)s1	inactive
COC1=CC(=O)c2c(ccc3ncnc(N)c23)C1=O	inconclusive: 35.5 µM [inhibitor, partial curve, poor fit]
CC(C)c1ccc(Nc2nc(N)c(C#N)c(CC#N)c2C#N)cc1	inactive

Looked up by compound from above, 2 records:
SMILES	Potency
CC(C)c1ccc(Nc2nc(N)c(C#N)c(CC#N)c2C#N)cc1	inactive
O=C(NCCN1CCCCC1)Nc1ccccc1Cl	inconclusive: 35.5 µM [inhibitor, partial curve, poor fit]
